Test results published in patent US20240180900A1, “COMPOUNDS AND METHODS FOR THE TARGETED DEGRADATION OF ANDROGEN RECEPTOR” (Arvinas Operations, Inc., priority 2022, published 2024).

Test system: VCaP cells
Assay: apoptosis in VCaP cells (CaspaseGlo)
Assay type: cell-based
Settings: Homo sapiens, CSS + 0.1 nM R1881, 72 hours, read-out: EC50, inducing apoptosis
Protocol: Intracellular prostate specific antigen (PSA) levels were determined using a PSA enzyme-linked immunosorbent assay (ELISA). […] The cell proliferation was determined using the CellTiter-Glo® assay. […] The CaspaseGlo® assay was carried out to measure the level of apoptosis in cells.
To evaluate the pharmacological effect of Compound A in vitro, PSA, cell proliferation, and apoptosis assays were carried out in VCaP cells.

## CNC(=O)c1ccc(N2C(=S)N(c3ccc(C#N)c(C(F)(F)F)c3)C(=O)C2(C)C)cc1F [enzalutamide, reference compound]
  EC50: 1660 nM
